Primary screen of a compound library

A: 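Whole-cell assay for inhibitors of Mycobacterium tuberculosis growth, labelled Cornell in the record; the read-out is not stated. The concentration is filed as 10 mM, unlikely as a test dose, so the dose is not known. Higher means stronger inhibition (inferred from two other growth screens of the library). Of about 53,000 compounds tested this way, about 900 (1.7%) reached 50% or more in at least one test.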
B: 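Assay on Mycobacterium tuberculosis, filed only as a heat shock assay from Cornell; the read-out is not stated. The concentration is filed as 10 mM, unlikely as a test dose, so the dose is not known. The record gives no direction; compounds that gave an IC50 in retests scored well above the rest, so higher reads as stronger inhibition. Size under these conditions: about 69,000 compounds, about 930 of them at 50% or above in at least one test.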

Results are given as percent effect.
The controls that fix the scale are not given in the record; negative values are as filed.
Compounds were drawn at random from those tested, without regard to their results.
A dash means the value is not listed here; it may have been measured.

SMILES	A	B
Oc1ccccc1CN1C[C@H](O)C[C@H]1c1nc(Cc2ccccc2)no1	-	-32.55
CN(Cc1cccc(F)c1)C1CCN(CCc2ccccn2)CC1	10.68	-11.35
Cc1ccc(N2CCN(C(=O)CCc3n[nH]c(C)c3C)CC2=O)cc1	-12.4	1.624
COCC1c2nnn(CC3CC3)c2CCN1C(=O)C1CCOCC1 (stereo not shown)	-2.617	-8.263
Cc1nn(C)c2nc3c(c(C(=O)/N=c4\[nH]nc(C(C)C)s4)c12)CCC3	17.38	3.096
O=C(C1CCCO1)N1CCCn2c(nnc2Cn2cccc2)C1 (stereo not shown)	34.91	-42.54
COc1ccc(C2(C(=O)NC3CCc4nccn4C3)CCCC2)cc1 (stereo not shown)	-9.314	-24.91
COc1ccc2c(ccn2CCC(=O)NCCCC(=O)O)c1	17.51	13.87
CC(NCC1CCN(CCO)CC1)c1cccnc1 (stereo not shown)	8.034	-1.258
CC(C)OCCCNC(=O)CS(=O)(=O)Cc1cccc(Cl)c1	-	5.924
CN(C)c1nc(CNC(=O)Nc2cccc([S+](C)[O-])c2)cs1 (stereo not shown)	-38.96	30.46
CCCc1n[nH]c(C2CN(C(=O)C3=COCCC3)CCO2)n1 (stereo not shown)	19.51	7.137
Cc1ccccc1N1CCCN(C(=O)CC2CN(C(C)C)CCO2)CC1 (stereo not shown)	-	-4.089
CCCS(=O)(=O)N1CCOC2(CCCN(Cc3ccccn3)C2)C1.O=C(O)C(F)(F)F (stereo not shown)	8.421	-0.8659
Cn1ccnc1CN1C[C@@H](CN2CCCC2)[C@@H](CO)C1	-76.88	-2.493
Fc1ccc(-c2cnc(CNC3CCc4ncnn4C3)o2)cc1 (stereo not shown)	-	-15.74
CCOCC1CN(C(=O)C2=CCCC2)Cc2cnn(C)c21 (stereo not shown)	24.65	-28.02
N#CC1(C(=O)N2C[C@H](Nc3ccnc(N)n3)[C@@H](C3CC3)C2)CCOCC1	20.48	5.957
COCCN1CC2(CCCN(C(=O)CCCc3cccs3)C2)CCC1=O (stereo not shown)	-53.88	-17.61
CNc1ncccc1CN1CCN(C(C)=O)CC(C(N)=O)C1 (stereo not shown)	5.24	13.74
c1cc(CNc2ncc(-c3cnccn3)c([C@@H]3CCCO3)n2)ccn1	7.865	13.41
CCN1CCn2c(-c3cccc(F)c3)cnc2C12CCN(C(C)=O)CC2.O=C(O)C(F)(F)F	2.766	-1.505
COc1cccc(C2SCC(=O)Nc3ccsc32)c1 (stereo not shown)	-22.4	-8.827
O=C(NCCNc1ncccn1)C1CCN(C(=O)C2CC2)CC1	13.74	13.16
Fc1ccc(-c2nc(CNC3CCc4ncnn4C3)co2)cc1 (stereo not shown)	-25.09	-19.89
Cl.Cl.Cn1cc(C(=O)NCc2cncc3c2CCN(c2ccccn2)C3)cn1	-22.17	-14.06
Cc1ccc(C(NC(=O)CCNC(=O)c2ccoc2)C(F)(F)F)cc1 (stereo not shown)	-	6.156
Cc1cc(CN2CCN(C(=O)c3sccc3C(C)C)CC2)no1	-	-10.94
C=Cc1ccc(C(=O)N2CCCC(Nc3ccc(F)c(F)c3)C2)cc1 (stereo not shown)	0.1082	11
O=C(O)C(F)(F)F.O=C(O)C(F)(F)F.[H][C@@]12CN(Cc3csc(C)n3)C[C@]1([H])CN(C(=O)Cc1ccccn1)C2	-0.03802	-4.963
Cc1cc(N2CCC(Cc3ccccc3)CC2)nc(-c2ccncc2)n1	82.9	26.33
Cn1cnc(S(=O)(=O)N2CCCC2c2cnccn2)c1 (stereo not shown)	-30.24	10.2
O=C(O)C(F)(F)F.O=C(O)C(F)(F)F.c1cncc(C2COC3(CCN(CC4CCOCC4)CC3)C2)c1 (stereo not shown)	-	-13.27
CC(NC(=O)N1CCS(=O)(=O)CC1)c1c(F)cccc1Cl (stereo not shown)	12.46	9.08
COCC(=O)Nc1ccc(-c2noc([C@@H]3CCCN3)n2)cn1	-	3.721
CC(C)c1csc(C2CCCN(C(=O)c3ncccn3)C2)n1 (stereo not shown)	-33.06	-4.334
Cc1cnn(CCC(=O)N2CCCC(c3ccn[nH]3)C2)c1 (stereo not shown)	-	-6.428
CSc1cccc(CN(C)C(=O)Nc2nc(C)n(C)n2)c1	-9.487	5.747
Cl.Cl.[H][C@@]12CNCC[C@]1([H])N(c1nccs1)[C@H](Cn1cncn1)C2	-32.48	0.1902
CC(C)[C@H](N)CC(=O)Nc1nc(-c2cnc(N3CCOCC3)nc2)cs1.Cl	12.8	-24.08
CC(=O)N(C)C1CCCc2nc(C)sc21 (stereo not shown)	-	16.98
CC(C1CCN(Cc2c(Cl)cncc2Cl)CC1)N1CCN(C)CC1 (stereo not shown)	-25.24	-23.8
Cc1ccc(NC(=O)C2=CN=S=N2)cc1	-	-8.751
c1cc(CCN2CCCC2CN2CCCCC2)ccn1 (stereo not shown)	-10.05	-42.87
CCCn1cc(NC(=O)NCC2CCS(=O)(=O)C2)nn1 (stereo not shown)	19.91	15.13
Cc1cc(=O)n2nc(Oc3ccc(F)c(F)c3)sc2n1	-27.18	-21.75
[H][C@@]12CS(=O)(=O)C[C@]1([H])N(Cc1ncc[nH]1)CCN2C/C=C/c1ccccc1	16.86	-19.08
CCc1noc(C(C)N2CCC(NS(=O)(=O)c3cccs3)CC2)n1 (stereo not shown)	11.94	-3.556
CC(CO)CSc1ncnc2[nH]ncc12 (stereo not shown)	-	1.633
CC(O)C1CCN(Cc2cnc3c(-c4ccccc4)cnn3c2)CC1 (stereo not shown)	7.21	-20.48
COc1cc(CCC(=O)NC2CC2)ccc1OCC(F)(F)F	25.34	-10.34
CN1C(=O)C2(CCN(CC3CCC3)C2)c2ccccc21.O=C(O)C(F)(F)F (stereo not shown)	-17.26	-10.24
COc1ncc(C2(O)CCN(Cc3c(F)cccc3F)CC2)c(OC)n1.Cl	-	-14.29
CC(O)c1cn(CC2CCN(C(=O)c3cscn3)CC2)nn1 (stereo not shown)	-5.529	-3.808
Cc1cc(C)n(CC2CCCN2Cc2nc(N)c3ccccc3n2)n1 (stereo not shown)	28.52	96.02
CC(c1ccc(-n2cncn2)cc1)N(C)Cc1ccccn1 (stereo not shown)	22.45	-25.4
O=C(c1ccc2c(c1)OCO2)N1CCCC(Nc2ccc(F)cc2)C1 (stereo not shown)	13.7	-24.66
Cn1nc(C(=O)NC2CC(C)(C)NC(C)(C)C2)cc1NC(=O)C1CC1	-	-35.67
CCc1ccsc1CNC(=O)CNC(=O)C(C)(C)C	-	-13.24
O=C(O)C(F)(F)F.O=C(O)C(F)(F)F.O=C(O)C(F)(F)F.O=C(O)C(F)(F)F.[H][C@@]12CCCO[C@]1([H])[C@H](N(C)Cc1cccnc1)CN2Cc1cnn(C)c1	26.2	-14.12
COC(=O)c1cc(NCc2cscn2)ccc1C	-	-17.93
CCOC(=O)c1cccc(N2CCCC3(CCC(=O)N(C4CC4)C3)C2)n1 (stereo not shown)	29.03	1.76
COCCOCC(=O)Nc1ccnn1-c1ccc(Cl)cc1	11.84	12.28
CN(CC1(CO)CCC1)C(=O)c1cc(COc2ccccc2F)[nH]n1	15.82	-9.922
COc1ccccc1CC1CCCN(CC(=O)N2CCOCC2)C1 (stereo not shown)	-	10.38
Cc1ncnc2c1CCN(Cc1ccccn1)CC2.O=C(O)C(F)(F)F.O=C(O)C(F)(F)F	24.93	7.437
O=C(c1ccc(Cl)cc1)N1CCC(N2CCCCC2=O)CC1	-	-16.12
CCS(=O)(=O)CC(=O)NC1CCc2nccn2C1 (stereo not shown)	5.167	4.788
CCOC(=O)c1c(NC(=O)CN2CCN(C(C)=O)CC2)sc(C)c1C	-	-7.801
COc1ccc(F)cc1C(=O)N1CCCC(n2nc(C)nc2C)C1 (stereo not shown)	-27.07	30.97
CC(C#N)CNC(=O)Nc1ccc(-c2ccc[nH]2)cc1 (stereo not shown)	9.091	1.723
O=C(c1cc(CC2(NCc3ccccc3)COC2)no1)N1CCCCC1	-	-7.965
O=C(NCCc1c[nH]c2ccc(F)cc12)C1(n2cnnn2)CCCCC1	65.5	102.2
CN(C(=O)OC(C)(C)C)C1CCN(C(=O)c2cc(Cl)c[nH]2)C1 (stereo not shown)	-	1.476
Cc1ccc2c(n1)N(CCn1cccn1)CCN(C(=O)NC1CC1)C2.O=C(O)C(F)(F)F	18.69	13.51
COc1ccc(N(C(=O)c2cnc(C)cn2)C(C)C)cc1F	-10.07	10.99
COc1ccc(CN2CCc3[nH]nc(C(=O)N(C)C)c3C2)cc1.O=C(O)C(F)(F)F	-5.835	-12.14
Cn1cncc1-c1nnc([C@H]2CCN(CC(C)(C)C)C2)o1	-13.62	-11.39
O=C(O)C(F)(F)F.O=C(O)C(F)(F)F.[H][C@@]12CN(Cc3ccncc3)C[C@]1([H])C(=O)N(c1cncnc1)C2	14.73	-3.868

Some entries from above, unchanged:

| SMILES | A | B |
|---|---|---|
| `Cn1cnc(S(=O)(=O)N2CCCC2c2cnccn2)c1` (stereo not shown) | -30.24 | 10.2 |
| `Cc1cc(C)n(CC2CCCN2Cc2nc(N)c3ccccc3n2)n1` (stereo not shown) | 28.52 | 96.02 |
| `CN(Cc1cccc(F)c1)C1CCN(CCc2ccccn2)CC1` | 10.68 | -11.35 |
| `CC(O)c1cn(CC2CCN(C(=O)c3cscn3)CC2)nn1` (stereo not shown) | -5.529 | -3.808 |
| `CCc1ccsc1CNC(=O)CNC(=O)C(C)(C)C` | - | -13.24 |
| `[H][C@@]12CS(=O)(=O)C[C@]1([H])N(Cc1ncc[nH]1)CCN2C/C=C/c1ccccc1` | 16.86 | -19.08 |
| `Cc1ccc(N2CCN(C(=O)CCc3n[nH]c(C)c3C)CC2=O)cc1` | -12.4 | 1.624 |

Source: ChEMBL document CHEMBL3988442, “University of Dundee, Small-Polar-MMV Screening Library” (2021).